The values below come from PMC4066819.

Amino acid sequences for entries named in this document (tags omitted).
UniProt P37238: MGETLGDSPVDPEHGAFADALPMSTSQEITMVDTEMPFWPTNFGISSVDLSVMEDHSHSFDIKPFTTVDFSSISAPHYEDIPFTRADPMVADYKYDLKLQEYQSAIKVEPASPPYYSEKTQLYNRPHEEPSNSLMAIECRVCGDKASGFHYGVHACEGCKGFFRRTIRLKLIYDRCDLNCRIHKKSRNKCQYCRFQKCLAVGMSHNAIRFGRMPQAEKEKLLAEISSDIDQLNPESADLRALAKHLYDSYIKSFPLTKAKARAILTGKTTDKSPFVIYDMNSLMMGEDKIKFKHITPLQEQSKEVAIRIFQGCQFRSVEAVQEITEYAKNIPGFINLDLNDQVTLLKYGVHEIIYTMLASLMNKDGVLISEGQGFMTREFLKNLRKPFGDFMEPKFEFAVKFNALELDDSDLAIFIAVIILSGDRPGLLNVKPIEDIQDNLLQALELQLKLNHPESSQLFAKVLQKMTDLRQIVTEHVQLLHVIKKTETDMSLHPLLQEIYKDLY

In this experiment the target is T1, FLAG-V5-TAF7L (TATA-binding protein associated factor 7L, doubly tagged) (UniProt Q9D3R9).
T1 sequence: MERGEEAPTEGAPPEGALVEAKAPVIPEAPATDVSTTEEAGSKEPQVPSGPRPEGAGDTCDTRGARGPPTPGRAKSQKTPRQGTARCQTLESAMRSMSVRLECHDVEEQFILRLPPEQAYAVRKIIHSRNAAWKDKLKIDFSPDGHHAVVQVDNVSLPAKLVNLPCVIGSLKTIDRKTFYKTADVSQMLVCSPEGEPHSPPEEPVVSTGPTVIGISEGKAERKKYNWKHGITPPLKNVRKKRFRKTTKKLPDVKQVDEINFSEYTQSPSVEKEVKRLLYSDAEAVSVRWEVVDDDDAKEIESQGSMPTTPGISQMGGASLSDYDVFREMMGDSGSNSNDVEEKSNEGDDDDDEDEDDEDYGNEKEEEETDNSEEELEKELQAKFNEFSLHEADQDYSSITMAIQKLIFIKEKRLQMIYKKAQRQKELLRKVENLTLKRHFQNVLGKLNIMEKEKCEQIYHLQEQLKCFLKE
The experiment can be described thus: co-IP; same sequential FLAG then V5 immunoprecipitation from post-differentiated FLAG-V5-GFP/TAF7L C3H10T1/2 adipocytes; 0.3 M NaCl, 0.2% NP-40, 4°C; western blotting with V5, PPARγ, TAF4 and TBP antibodies. (A western blot detects proteins with antibodies after separation by electrophoresis.)

Results are given in words; binding and its absence hold for the method and conditions named. Binding seen in cells or lysates may run through a third protein. Some binding calls cover weakened binding; strength is not graded here. Sequences can lack the tags named with a protein.

On to PPARγ (from UniProt P37238 1-505), for which the binding entry is reported as “binds”.

B1: TAF4 (protein, UniProt E9QAP7 1-1042)
chain: MAAGSDLLDEVFFNSEVDEKVVSDLVGSLESQLAASAAHHHHLAPRTPELRAAAAGALGNHVVSGSPAGAAGAGPAASAEGAPAAAPEPPPAGRARPAGGGPRRPGSSSPRRLLVPAGPAPAPAKLRPLPEASAGPCPAAAAAAAATAAAVAGPDPAAAAPPAGPGASKPGPPGPPGPGAAQTLNGSAAPPTAPHAAPAVSPVNNGPAPPPAAGSVIQAAPAPAAPSPPAAPAPAAPPPPAPPAPVAPARPPGHPAAPAPPVSPAAAAAAAAAAAAAQNGAAPAPAAASGGAAGLGQPGAGAQGAKAEAPKPGPGPGPGPAAAAAAAGVAGGGAAGSVLLGPAMPGALPGPAPGTPAGLAKGAAAATPSLPRTPAATTGAIRATLTPTVLAPRLPQPPQNPTNIQNFQLPPGMVLVRSENGQLLMIPQQALAQMQAHAQAQPQSTMAPRPATPTGAPPVQISTVQAPGTPIIARQVTPTTIIKQVSQAQTTVQPTTTLQRSPGVQPQLVLGGSAQPASLGTATAVQTGTPQRTVPGASTTSTAATETMENVKKCKSFLSTLIKLASSGKQSTETAANVKDLVQNLLDGKIEAEDFTSRLYRELNSSPQPYLVPFLKRSLPALRQLTPDSAAFIQQSQQQQPPASQATTALTAVVLSSSVQRTAGKTAASVTSALQPPVISLTQPTQVGVGKQAPPTPLVIQQPPKPGALIRPPQVTLTQTPMVALRQPHNRIMLTTPQQIQLNQLQPVPVVKPTVLPGTKALSTVSAQAAAAQKNKLKEPGGGSFRDDDDINDVASMAGVNLSEESARILATNSELVGTLTRSCKDDTFLLPAPLQRRILEIGKKHGITELHPDVVSYVSHATQQRLQNLVEKISETAQQKNFSYKDDDRYEQASDVRAQLKFFEQLDQIEKQRKDEQEREILMRAAKSRSRQEDPEQLRLKQKAKEMQQQELAQMRQRDANLTALAAIGPRKKRKVDCTGPGSGAEGSGPGAAVPGGSGVGTPRQFTRQRITRVNLRDLIFCLENERETSHSLLLYKAFLK
Take B1: the binding entry was “binds”.
